Assay results taken from patent US20080318857A1.
Results are given in words; binding and its absence hold for the method and conditions named. Binding seen in cells or lysates may run through a third protein. Some results given as binding are weak or reduced against the parent protein; the word gives no strength.

By UniProt entry, the sequences of proteins in these tests, tags left out. Where a name states a change or a piece, a line headed by the entry shows the natural chain unless it says otherwise. Residues count along the entry.
UniProt P35968, residues 20-1356: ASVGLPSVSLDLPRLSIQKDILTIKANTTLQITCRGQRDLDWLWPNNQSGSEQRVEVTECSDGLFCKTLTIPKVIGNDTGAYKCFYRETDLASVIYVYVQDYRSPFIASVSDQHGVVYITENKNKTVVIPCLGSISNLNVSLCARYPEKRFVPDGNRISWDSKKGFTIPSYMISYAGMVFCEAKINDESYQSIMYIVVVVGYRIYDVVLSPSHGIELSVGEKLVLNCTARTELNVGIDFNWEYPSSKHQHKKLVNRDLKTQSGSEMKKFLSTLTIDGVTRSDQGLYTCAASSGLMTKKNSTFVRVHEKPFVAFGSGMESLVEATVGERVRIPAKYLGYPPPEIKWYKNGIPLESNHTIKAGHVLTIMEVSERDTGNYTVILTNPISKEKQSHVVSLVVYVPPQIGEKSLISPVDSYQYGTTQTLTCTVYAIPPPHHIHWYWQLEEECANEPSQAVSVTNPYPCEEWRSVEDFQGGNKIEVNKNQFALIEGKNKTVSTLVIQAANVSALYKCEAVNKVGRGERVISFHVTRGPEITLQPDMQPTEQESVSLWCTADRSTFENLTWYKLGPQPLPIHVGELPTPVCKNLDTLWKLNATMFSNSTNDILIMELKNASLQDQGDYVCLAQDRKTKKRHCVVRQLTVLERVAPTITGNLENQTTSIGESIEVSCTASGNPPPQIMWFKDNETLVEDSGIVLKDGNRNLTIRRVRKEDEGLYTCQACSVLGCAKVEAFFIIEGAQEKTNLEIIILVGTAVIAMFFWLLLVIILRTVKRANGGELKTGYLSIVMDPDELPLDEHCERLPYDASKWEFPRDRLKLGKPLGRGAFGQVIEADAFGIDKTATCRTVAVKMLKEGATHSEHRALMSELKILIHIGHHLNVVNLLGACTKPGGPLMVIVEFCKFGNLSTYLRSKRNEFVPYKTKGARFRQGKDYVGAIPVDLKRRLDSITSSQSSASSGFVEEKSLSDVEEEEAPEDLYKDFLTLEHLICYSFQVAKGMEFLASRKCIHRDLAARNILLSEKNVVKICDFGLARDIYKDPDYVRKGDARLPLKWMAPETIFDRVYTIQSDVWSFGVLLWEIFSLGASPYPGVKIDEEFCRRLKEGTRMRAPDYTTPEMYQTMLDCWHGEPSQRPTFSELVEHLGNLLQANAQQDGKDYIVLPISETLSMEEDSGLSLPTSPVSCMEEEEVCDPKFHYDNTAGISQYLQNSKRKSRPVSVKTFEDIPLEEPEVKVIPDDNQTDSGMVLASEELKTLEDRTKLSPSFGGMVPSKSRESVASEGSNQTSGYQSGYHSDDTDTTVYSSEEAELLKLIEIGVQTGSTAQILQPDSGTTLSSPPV
UniProt P17948: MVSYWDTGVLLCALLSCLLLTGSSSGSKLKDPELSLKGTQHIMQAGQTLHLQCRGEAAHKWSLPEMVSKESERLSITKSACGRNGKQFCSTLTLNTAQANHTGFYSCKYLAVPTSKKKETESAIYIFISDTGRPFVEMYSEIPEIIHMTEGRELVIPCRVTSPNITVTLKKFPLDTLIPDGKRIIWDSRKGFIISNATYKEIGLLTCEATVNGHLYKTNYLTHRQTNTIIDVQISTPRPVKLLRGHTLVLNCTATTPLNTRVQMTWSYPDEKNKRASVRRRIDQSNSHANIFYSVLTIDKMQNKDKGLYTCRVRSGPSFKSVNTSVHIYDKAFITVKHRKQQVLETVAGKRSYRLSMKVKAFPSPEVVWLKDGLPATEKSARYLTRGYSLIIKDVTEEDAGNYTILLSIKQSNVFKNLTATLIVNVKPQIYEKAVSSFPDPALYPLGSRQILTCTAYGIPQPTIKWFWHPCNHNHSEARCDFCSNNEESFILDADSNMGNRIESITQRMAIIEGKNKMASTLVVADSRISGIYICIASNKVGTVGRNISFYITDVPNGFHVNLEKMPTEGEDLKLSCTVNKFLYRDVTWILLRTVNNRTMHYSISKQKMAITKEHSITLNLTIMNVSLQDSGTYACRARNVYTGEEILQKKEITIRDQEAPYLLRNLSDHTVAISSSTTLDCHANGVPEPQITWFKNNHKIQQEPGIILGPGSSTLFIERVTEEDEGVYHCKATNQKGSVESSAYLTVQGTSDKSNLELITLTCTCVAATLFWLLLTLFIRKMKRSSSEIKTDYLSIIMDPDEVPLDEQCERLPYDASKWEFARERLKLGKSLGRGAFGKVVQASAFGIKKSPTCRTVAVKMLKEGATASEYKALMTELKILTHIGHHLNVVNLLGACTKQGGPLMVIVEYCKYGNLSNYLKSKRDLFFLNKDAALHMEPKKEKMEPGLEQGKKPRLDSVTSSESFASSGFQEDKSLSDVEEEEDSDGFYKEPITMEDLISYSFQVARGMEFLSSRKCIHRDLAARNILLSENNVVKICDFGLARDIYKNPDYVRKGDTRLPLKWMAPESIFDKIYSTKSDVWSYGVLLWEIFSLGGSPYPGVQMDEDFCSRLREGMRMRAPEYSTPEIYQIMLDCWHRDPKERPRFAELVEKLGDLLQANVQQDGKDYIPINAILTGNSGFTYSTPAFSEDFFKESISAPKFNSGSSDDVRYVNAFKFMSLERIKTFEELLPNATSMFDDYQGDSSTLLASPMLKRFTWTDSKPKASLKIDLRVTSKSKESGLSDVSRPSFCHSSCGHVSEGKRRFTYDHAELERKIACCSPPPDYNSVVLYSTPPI

Columns and labels:
[1] = biological target: VEGFR-2 (KDR), endogenous in A375 human malignant melanoma cells (human) (UniProt P35968); test: co-immunoprecipitation: anti-FLT IP of transfected hypoxic A375 cell fraction, Western blot with anti-VEGFR-2
[2] = biological target: VEGFR-2 (KDR), endogenous in A375 human malignant melanoma cells (human) (UniProt P35968); test: heading of Example 5 (co-immunoprecipitation in A375 cells)

## Flt24K intraceptor (Flt24-KDEL; domains 2, 3 and 4 of VEGFR-1 (Flt) fused at the C-terminus to the ER retention signal KDEL) (from UniProt P17948 130-434) (receptor)
[1]
  binding: binds
[2]
  binding: binds
